Test results: the supplement of paper PMC10849652
Some of the results follow.

Protein sequences, listed by entry. Tags and fused reporters are not part of them. Lines headed by an entry give the natural chain unless they say otherwise; changes in a name come on top.
UniProt P78382: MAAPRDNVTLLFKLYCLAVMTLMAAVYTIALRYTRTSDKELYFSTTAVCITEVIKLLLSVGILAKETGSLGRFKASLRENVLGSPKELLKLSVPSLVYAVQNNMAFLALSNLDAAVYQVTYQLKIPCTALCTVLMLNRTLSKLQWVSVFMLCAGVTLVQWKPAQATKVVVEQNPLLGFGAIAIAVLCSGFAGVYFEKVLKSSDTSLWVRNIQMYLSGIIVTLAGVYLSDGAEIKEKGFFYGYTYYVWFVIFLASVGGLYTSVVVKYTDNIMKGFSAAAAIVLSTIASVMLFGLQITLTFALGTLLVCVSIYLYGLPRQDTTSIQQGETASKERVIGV
UniProt Q6P1K1: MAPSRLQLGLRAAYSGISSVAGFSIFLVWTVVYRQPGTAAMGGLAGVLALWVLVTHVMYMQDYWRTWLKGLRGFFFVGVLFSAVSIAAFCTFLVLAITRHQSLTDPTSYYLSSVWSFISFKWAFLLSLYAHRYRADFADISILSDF
UniProt Q9BRY0: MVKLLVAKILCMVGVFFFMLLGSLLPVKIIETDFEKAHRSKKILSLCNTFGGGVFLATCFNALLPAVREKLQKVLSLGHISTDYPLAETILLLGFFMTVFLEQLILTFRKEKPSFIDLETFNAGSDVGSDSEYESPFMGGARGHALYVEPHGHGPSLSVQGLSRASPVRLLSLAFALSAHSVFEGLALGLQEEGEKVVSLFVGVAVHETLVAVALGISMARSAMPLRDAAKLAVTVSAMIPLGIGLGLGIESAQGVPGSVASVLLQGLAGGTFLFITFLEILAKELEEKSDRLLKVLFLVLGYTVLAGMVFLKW
UniProt P31641: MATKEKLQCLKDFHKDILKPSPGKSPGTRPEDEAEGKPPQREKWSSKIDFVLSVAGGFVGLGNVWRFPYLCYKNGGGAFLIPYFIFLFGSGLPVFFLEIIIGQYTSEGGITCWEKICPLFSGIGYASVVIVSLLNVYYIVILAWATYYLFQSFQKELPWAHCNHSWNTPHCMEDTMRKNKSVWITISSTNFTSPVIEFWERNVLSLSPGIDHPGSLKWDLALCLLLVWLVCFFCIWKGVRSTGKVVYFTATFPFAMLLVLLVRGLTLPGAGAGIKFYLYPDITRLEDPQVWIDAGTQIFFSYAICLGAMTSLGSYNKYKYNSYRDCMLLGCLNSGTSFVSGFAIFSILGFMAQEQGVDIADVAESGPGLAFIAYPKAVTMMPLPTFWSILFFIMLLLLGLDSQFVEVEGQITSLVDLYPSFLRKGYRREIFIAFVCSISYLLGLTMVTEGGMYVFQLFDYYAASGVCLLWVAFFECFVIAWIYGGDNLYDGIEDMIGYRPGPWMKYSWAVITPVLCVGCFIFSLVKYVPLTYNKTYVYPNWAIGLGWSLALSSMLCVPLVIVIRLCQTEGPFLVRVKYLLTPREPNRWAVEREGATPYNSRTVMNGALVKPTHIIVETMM
UniProt Q96GZ6: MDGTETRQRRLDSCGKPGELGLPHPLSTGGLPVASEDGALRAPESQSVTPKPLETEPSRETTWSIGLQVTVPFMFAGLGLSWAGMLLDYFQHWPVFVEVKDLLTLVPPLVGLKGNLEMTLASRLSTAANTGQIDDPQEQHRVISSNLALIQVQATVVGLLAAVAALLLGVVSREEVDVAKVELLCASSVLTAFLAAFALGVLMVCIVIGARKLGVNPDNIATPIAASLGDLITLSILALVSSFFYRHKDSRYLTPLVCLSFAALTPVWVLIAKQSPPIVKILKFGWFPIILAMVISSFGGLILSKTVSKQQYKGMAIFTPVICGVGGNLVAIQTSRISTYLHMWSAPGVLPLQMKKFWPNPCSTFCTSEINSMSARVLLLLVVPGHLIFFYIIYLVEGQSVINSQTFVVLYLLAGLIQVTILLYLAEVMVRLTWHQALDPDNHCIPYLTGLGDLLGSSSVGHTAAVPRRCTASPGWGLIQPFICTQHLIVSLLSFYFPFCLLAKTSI
UniProt Q9C0K1: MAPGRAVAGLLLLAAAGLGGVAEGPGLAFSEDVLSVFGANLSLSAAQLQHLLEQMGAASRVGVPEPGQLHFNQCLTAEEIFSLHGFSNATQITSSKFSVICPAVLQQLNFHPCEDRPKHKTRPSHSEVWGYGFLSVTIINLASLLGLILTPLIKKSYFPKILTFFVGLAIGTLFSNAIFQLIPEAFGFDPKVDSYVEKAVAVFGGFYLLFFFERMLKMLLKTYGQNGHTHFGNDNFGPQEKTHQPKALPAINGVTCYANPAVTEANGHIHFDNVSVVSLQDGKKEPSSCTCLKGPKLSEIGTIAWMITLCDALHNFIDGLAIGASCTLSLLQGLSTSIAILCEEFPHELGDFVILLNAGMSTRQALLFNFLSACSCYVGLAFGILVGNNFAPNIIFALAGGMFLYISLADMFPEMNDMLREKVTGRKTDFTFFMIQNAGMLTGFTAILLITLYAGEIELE
UniProt P48067: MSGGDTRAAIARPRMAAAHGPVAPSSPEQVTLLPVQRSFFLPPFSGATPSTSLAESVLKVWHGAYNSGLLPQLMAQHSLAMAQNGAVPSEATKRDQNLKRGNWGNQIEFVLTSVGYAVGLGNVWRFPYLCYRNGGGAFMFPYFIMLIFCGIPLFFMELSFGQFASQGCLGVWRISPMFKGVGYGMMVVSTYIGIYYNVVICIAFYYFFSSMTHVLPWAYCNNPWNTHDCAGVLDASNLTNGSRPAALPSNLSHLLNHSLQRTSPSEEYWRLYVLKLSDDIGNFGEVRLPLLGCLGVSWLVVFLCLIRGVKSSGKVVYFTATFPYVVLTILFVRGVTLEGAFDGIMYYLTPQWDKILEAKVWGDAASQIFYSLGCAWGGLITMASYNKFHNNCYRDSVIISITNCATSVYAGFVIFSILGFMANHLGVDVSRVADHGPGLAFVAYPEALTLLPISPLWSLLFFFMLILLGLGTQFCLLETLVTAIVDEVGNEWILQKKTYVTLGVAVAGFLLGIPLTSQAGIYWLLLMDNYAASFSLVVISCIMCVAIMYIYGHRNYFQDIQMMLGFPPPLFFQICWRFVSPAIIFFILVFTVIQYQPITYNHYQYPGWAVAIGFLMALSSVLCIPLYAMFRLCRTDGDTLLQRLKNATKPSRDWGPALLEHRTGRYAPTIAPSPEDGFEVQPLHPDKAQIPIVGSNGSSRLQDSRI
UniProt Q96QD8: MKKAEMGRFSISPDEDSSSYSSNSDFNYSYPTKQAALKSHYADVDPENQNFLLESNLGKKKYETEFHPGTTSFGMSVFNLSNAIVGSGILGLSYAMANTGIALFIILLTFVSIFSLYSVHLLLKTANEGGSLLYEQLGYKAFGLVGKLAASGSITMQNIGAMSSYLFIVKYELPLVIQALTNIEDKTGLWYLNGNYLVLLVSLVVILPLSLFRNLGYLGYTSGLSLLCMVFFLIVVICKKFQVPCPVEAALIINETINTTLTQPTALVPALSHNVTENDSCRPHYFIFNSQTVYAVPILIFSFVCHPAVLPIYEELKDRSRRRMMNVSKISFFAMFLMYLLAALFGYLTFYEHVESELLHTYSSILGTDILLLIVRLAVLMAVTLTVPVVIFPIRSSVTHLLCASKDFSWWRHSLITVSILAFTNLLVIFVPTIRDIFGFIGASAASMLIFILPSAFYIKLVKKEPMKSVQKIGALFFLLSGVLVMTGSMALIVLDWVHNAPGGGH
UniProt Q9BZJ4: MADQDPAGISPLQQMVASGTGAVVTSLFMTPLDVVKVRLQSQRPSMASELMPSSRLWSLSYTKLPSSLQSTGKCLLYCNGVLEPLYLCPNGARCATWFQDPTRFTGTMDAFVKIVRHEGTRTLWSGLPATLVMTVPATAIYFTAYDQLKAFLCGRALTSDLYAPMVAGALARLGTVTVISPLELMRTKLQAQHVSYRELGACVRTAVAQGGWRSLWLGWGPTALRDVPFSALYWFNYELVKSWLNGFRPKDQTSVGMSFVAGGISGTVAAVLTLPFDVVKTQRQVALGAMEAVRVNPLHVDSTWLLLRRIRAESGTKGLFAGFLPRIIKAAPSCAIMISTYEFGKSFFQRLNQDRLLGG
UniProt Q9UGH3: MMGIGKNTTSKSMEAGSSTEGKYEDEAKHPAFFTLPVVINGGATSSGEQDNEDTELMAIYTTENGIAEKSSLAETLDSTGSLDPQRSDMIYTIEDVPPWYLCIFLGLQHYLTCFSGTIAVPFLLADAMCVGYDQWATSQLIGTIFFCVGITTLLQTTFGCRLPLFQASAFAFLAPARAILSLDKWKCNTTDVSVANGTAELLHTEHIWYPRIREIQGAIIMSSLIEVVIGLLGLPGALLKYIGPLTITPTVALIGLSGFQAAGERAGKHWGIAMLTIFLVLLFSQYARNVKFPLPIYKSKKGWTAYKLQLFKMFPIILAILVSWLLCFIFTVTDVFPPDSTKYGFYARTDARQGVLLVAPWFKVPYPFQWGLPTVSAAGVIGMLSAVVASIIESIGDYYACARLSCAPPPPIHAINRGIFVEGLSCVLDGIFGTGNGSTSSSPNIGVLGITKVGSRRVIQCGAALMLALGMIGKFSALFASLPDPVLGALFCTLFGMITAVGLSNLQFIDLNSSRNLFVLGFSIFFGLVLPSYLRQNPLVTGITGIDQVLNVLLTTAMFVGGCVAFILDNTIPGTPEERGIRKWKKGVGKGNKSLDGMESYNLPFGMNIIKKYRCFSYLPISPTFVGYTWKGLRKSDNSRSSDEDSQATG
UniProt Q8WV83: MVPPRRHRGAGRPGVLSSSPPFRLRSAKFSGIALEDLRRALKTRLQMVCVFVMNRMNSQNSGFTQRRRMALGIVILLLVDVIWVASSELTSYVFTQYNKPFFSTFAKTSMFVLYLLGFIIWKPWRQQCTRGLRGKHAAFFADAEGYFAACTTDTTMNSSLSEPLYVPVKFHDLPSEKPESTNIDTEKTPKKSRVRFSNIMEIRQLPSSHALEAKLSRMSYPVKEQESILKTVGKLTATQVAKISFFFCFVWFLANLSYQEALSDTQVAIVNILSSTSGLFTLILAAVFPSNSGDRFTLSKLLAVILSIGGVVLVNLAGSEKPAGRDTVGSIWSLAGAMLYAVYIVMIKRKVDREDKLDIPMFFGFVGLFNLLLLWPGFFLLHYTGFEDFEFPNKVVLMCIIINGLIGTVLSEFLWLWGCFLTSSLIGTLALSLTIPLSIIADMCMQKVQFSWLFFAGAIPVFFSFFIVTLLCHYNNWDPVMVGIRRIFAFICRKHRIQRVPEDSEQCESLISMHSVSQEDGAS

Columns and labels:
Assay in all cases: log2 fold change, soluble protein after heating vs DMSO (PISA); higher = thermal stabilisation; K562 cells, 10 uM, 30 min; active = over 0.2 and 3.5 SD of the protein, either way, in both replicates (recomputed)
[1] = compound: CS(=O)(=O)c1ccc(-c2cnc(N)c(C(=O)Nc3ccccc3)n2)cc1
Outline: (§1)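 Quantification of soluble protein used TMTpro 16plex LC-MS/MS, with channel sums equalised. Samples were the supernatant after 21,000xg for 90 min of pooled aliquots from K562 cells (2×10^6 cells/mL) treated with 10 μM compound for 30 min, heated for 3 min over 48°C-58°C, and extracted in PBS with 0.5% NP-40 at 4°C. Values, from duplicates, describe thermal stability against control samples on a log2 fold-change scale.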

crizotinib = compound: C[C@@H](Oc1cc(-c2cnn(C3CCNCC3)c2)cnc1N)c1c(Cl)ccc(F)c1Cl [crizotinib]
Outline: as §1

[2] = compound: C[C@@H]1COCCN1C2=NC(=NC(=C2)C3(CC3)S(=O)(=O)C)C4=C5C=CNC5=CC=C4
Outline: as §1

[3] = compound: C[C@H](C1=CC=C(C=C1)C(=O)NC2=C3C=CNC3=NC=C2)N
Outline: as §1

[4] = compound: Cc1cc(SCc2sc(-c3ccc(C(F)(F)F)cc3)nc2C)ccc1OCC(=O)O
Outline: as §1

doramapimod = compound: Cc1ccc(-n2nc(C(C)(C)C)cc2NC(=O)Nc2ccc(OCCN3CCOCC3)c3ccccc23)cc1 [doramapimod]
Outline: as §1

ispinesib = compound: Cc1ccc(C(=O)N(CCCN)[C@@H](c2nc3cc(Cl)ccc3c(=O)n2Cc2ccccc2)C(C)C)cc1 [ispinesib]
Outline: as §1

bafetinib = compound: Cc1ccc(NC(=O)c2ccc(CN3CC[C@H](N(C)C)C3)c(C(F)(F)F)c2)cc1Nc1nccc(-c2cncnc2)n1 [bafetinib]
Outline: as §1

nilotinib = compound: Cc1cn(-c2cc(NC(=O)c3ccc(C)c(Nc4nccc(-c5cccnc5)n4)c3)cc(C(F)(F)F)c2)cn1 [nilotinib]
Outline: as §1

[5] = compound: Cc1nc(Nc2n[nH]c3c2CN(C(=O)N[C@H](CN(C)C)c2ccccc2)C3(C)C)c2sccc2n1
Outline: as §1

dasatinib = compound: Cc1nc(Nc2ncc(C(=O)Nc3c(C)cccc3Cl)s2)cc(N2CCN(CCO)CC2)n1 [dasatinib]
Outline: as §1

[6] = compound: Cc1ncc(-c2ccnc(Nc3ccc(S(C)(=O)=O)cc3)n2)n1C(C)C
Outline: as §1

[7] = compound: Cn1cc(-c2ccc3c(c2)CCN3C(=O)Cc2cccc(C(F)(F)F)c2)c2c(N)ncnc21
Outline: as §1

[8] = compound: Cn1cc(-c2ccc3nnc(C(F)(F)c4ccc5ncccc5c4)n3n2)cn1
Outline: as §1

tipifarnib = compound: Cn1cncc1[C@@](N)(c1ccc(Cl)cc1)c1ccc2c(c1)c(-c1cccc(Cl)c1)cc(=O)n2C [tipifarnib]
Outline: as §1

mubritinib = compound: FC(F)(F)c1ccc(/C=C/c2nc(COc3ccc(CCCCn4ccnn4)cc3)co2)cc1 [mubritinib]
Outline: as §1

duvelisib = compound: C[C@H](Nc1ncnc2nc[nH]c12)c1cc2cccc(Cl)c2c(=O)n1-c1ccccc1 [duvelisib]
Outline: as §1

gandotinib = compound: Cc1cc(Nc2cc(CN3CCOCC3)c3nc(C)c(Cc4ccc(Cl)cc4F)n3n2)n[nH]1 [gandotinib]
Outline: as §1

tozasertib = compound: Cc1cc(Nc2cc(N3CCN(C)CC3)nc(Sc3ccc(NC(=O)C4CC4)cc3)n2)n[nH]1 [tozasertib]
Outline: as §1

[9] = compound: Cc1cccc(CC(=O)N2CCc3c2ccc(-c2cn(C)c4ncnc(N)c24)c3F)n1
Outline: as §1

Measured: log2 fold change

SLC35A1 (UniProt P78382)
inactive: [1] -0.017 | crizotinib 0.056 | [2] 0.044 | [3] -0.196 | [4] 0.074 | doramapimod -0.039 | ispinesib 0.04 | bafetinib 0.005 | nilotinib -0.009 | [5] -0.055 | dasatinib 0.036 | [6] -0.02 | [7] 0.03 | [8] 0.067 | tipifarnib -0.022 | mubritinib 0.049

SLC48A1 (UniProt Q6P1K1)
inactive: [1] 0.062 | crizotinib -0.312 | doramapimod 0.071 | ispinesib -0.25 | bafetinib -0.021 | nilotinib 0.015 | [5] 0.075 | [6] -0.019 | [8] 0.044

SLC39A3 (UniProt Q9BRY0)
inactive: [1] -0.025 | [2] 0.137 | [3] 0.029 | duvelisib 0.146 | gandotinib -0.071 | tozasertib 0.003 | [4] -0.102 | ispinesib -0.078 | bafetinib 0.017 | [9] 0.158 | nilotinib -0.022 | [5] -0.019 | dasatinib 0 | [6] 0.034 | [7] 0.002 | [8] 0.06 | tipifarnib 0.004 | mubritinib 0.002

SLC6A6 (UniProt P31641)
inactive: [1] 0.021 | crizotinib 0.04 | [2] -0.026 | [3] -0.021 | gandotinib -0.049 | [4] -0.042 | doramapimod -0.063 | ispinesib -0.028 | bafetinib -0.001 | [9] -0.018 | nilotinib 0.064 | [5] -0.015 | dasatinib -0.069 | [6] 0.068 | [7] -0.011 | [8] -0.006 | tipifarnib 0.002 | mubritinib 0.024

SLC41A3 isoform 9 (UniProt Q96GZ6)
inactive: [1] -0.049 | crizotinib 0.011 | [2] 0.077 | gandotinib 0.035 | tozasertib -0.118 | doramapimod 0.012 | bafetinib -0.033 | [9] -0.017 | nilotinib 0.009 | [5] 0.022 | [6] 0.045 | mubritinib -0.079

SLC39A8 (UniProt Q9C0K1)
inactive: [1] 0.005 | [2] -0.087 | [3] -0.234 | duvelisib -0.029 | gandotinib -0.1 | tozasertib -0.017 | [4] -0.016 | ispinesib -0.091 | bafetinib -0.069 | [9] -0.13 | nilotinib 0.036 | [5] -0.035 | dasatinib 0 | [6] -0.006 | [7] 0.026 | [8] 0.031 | tipifarnib 0.02 | mubritinib 0.05

SLC6A9 (UniProt P48067)
inactive: [1] -0.071 | crizotinib 0.051 | [3] 0.022 | duvelisib 0.09 | gandotinib -0.007 | tozasertib -0.052 | [4] -0.062 | doramapimod -0.028 | ispinesib 0.065 | bafetinib -0.097 | [9] 0.015 | nilotinib 0.084 | [5] 0.012 | dasatinib -0.041 | [6] -0.008 | [7] 0.089 | [8] -0.021 | tipifarnib 0.038 | mubritinib 0.042

SLC38A2 (UniProt Q96QD8)
inactive: [1] 0.031 | crizotinib 0.028 | [2] 0.075 | [3] -0.075 | [4] 0 | doramapimod -0.03 | ispinesib -0.049 | bafetinib -0.112 | nilotinib -0.037 | [5] 0.039 | dasatinib 0.047 | [6] 0.029 | [7] -0.055 | [8] 0.029 | tipifarnib -0.073 | mubritinib 0.017

SLC25A39 (UniProt Q9BZJ4)
inactive: [1] -0.029 | crizotinib -0.025 | [2] 0.14 | [3] -0.165 | gandotinib 0.075 | [4] -0.08 | doramapimod -0.079 | ispinesib -0.523 | bafetinib -0.182 | [9] -0.397 | nilotinib -0.136 | [5] -0.119 | dasatinib -0.035 | [6] 0.035 | [7] 0.081 | [8] 0.092 | tipifarnib 0.009 | mubritinib 0.104

SLC23A2 (UniProt Q9UGH3)
inactive: [1] 0.058 | crizotinib -0.039 | tozasertib -0.285 | doramapimod 0.008 | bafetinib -0.095 | nilotinib -0.127 | [5] 0.09 | [6] 0.102

SLC35F5 (UniProt Q8WV83)
inactive: [1] -0.115 | crizotinib -0.019 | [2] -0.309 | gandotinib -0.612 | doramapimod 0.028 | bafetinib -0.05 | [9] 0.1 | nilotinib -0.207 | [5] -0.062 | [6] -0.222 | tipifarnib 0.025
